In all, about 340,000 compounds went through this assay and about 170 (0.05%) were called active. Inconclusive means that the source gave no clear call. Such entries were picked first, then a sample of the others. The call rests on the fitted dose curve; in most records, active means well fitted inhibition curve with a large enough effect in the signal ratio, with a control signal flat (not every such curve was filed as active); inconclusive means small, poorly fitted or top-dose-only effect, or effect the other way, or a change in a side signal; inactive means flat fitted curve, though single readings scatter; the % refers to the signal ratio. A potency beside an inconclusive call is a rough fit, not a confirmed value.
Experiment: qHTS Assay to Find Inhibitors of Chronic Active B-Cell Receptor Signaling;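 on activity change, negative = inhibition: plate controls were basal doxycycline-induced cells for no effect and cells given 10 µM MG132 for full effect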
Settings: ABC-DLBCL IkBa-CBG/CBR reporter, luminescence ratio (green luciferase fused to IkBa over red control in TMD8 lymphoma cells), 4 h; activity change, negative = inhibition: at 46.1 µM (top of the series) unless noted
Method in brief: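 TMD8 human ABC-DLBCL cells with doxycycline-inducible IκBα–green luciferase fusion and unfused red luciferase, in 0.5% FBS medium; compounds up to 46 uM, 4 h at 37C. Green/red luminescence ratio, filter-overlap corrected, fitted to concentration-response curves.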
Potency means the concentration at half of the fitted maximal effect.

| Structure (SMILES) | activity change, negative = inhibition | Potency |
| --- | --- | --- |
| CN(CCCNC(=O)C1CCN(S(=O)(=O)c2cccc3nsnc23)CC1)Cc1ccccc1 | inactive | – |
| N=c1n(Cc2ccccc2)c2ccccc2n1CC(O)c1ccccc1 (centres undefined) | inconclusive: 1.94% | – |
| CC(C)(C)OC(=O)NCc1ccc(NC(=O)c2nc[nH]c2C(=O)NCCCCCCNC(=O)c2[nH]cnc2C(=O)Nc2ccc(CNC(=O)OC(C)(C)C)cc2)cc1 | inactive | – |
| Cn1c(SCCOc2ccccc2Cl)nnc1-c1ccncc1 | inconclusive: 3.62% | – |
| S=c1nc[nH]c2c1ncn2C1CCCC1 | – | inconclusive: 0.0891 µM [falling, full curve, poor fit] |
| O=C(O)CCCc1ccccc1 | inconclusive: 1.84% | – |
| CCCCn1c(N)c(N(CC)C(=O)c2ccc(N(C)S(=O)(=O)c3ccc(C)cc3)cc2)c(=O)[nH]c1=O | inconclusive: 11.5% | – |
| CC(=O)c1cc(C#N)c(SCC(=O)Nc2nccs2)nc1C | inconclusive: 6.81% | – |
| Clc1cccc(-c2cc3nc4c(c(NCc5ccco5)n3n2)CCCC4)c1 | inconclusive: -7.62% | – |
| Cc1cc(C(=O)COC(=O)CCc2nc3ccccc3c(=O)[nH]2)c(C)n1CC1CCCO1 (centres undefined) | inactive | – |
| Cc1oc2c(c1C(=O)c1ccc(Cl)cc1)C(=O)C(=O)c1ccccc1-2 | inactive | – |
| CC(=O)NC(CC(=O)O)c1ccc([N+](=O)[O-])cc1 (centres undefined) | inactive | – |
| O=C(O)c1cccc2cccnc12 | inactive | – |
| Cc1ccc(-c2c(C(=O)N/N=C/c3sccc3C)nnn2-c2nonc2N)cc1 | inconclusive: 1.2% | – |
| Cc1ncc([N+](=O)[O-])n1S(=O)(=O)c1cc(Cl)ccc1Cl | inactive | – |
| O=C(CSc1ccc(-c2ccncc2)nn1)N1CCCC1 | inconclusive: -10.4% | – |
| CCOC(=O)c1nc(-c2ccccc2)sc1C(C)=O | – | inconclusive: 8.91 µM [rising, partial curve, poor fit] |
| COc1ccc(Nc2nc(-c3cc4cccc(OC)c4oc3=O)cs2)cc1 | – | inconclusive: 4.11 µM [falling, partial curve] |
| O=[N+]([O-])c1ccc(O)c2cccnc12 | inactive | – |
| COc1ccc(CN(C)C(=O)/C=C/c2ccc(S(=O)(=O)N3CCOCC3)cc2)cc1F | inactive | – |
| Cc1c(NC(=O)CCCOc2ccccc2)cccc1[N+](=O)[O-] | – | inconclusive: 3.16 µM [falling, partial curve, poor fit] |
| O=C(Nc1cccc(C(F)(F)F)c1)NC1CCCCC1 | inconclusive: 16.6% | – |
| O=C(Cc1cccs1)N1CCN(S(=O)(=O)c2ccc(F)c(F)c2)CC1 | inconclusive: 1.17% | – |
| O=C(c1ccoc1)N1CCC2(CC1)Oc1ccc(Cl)cc1C(=O)C21CC(c2ccccc2)=NO1 (centres undefined) | inconclusive: -0.965% | – |

Quoted at random: 2 entries already listed.

| Structure (SMILES) | activity change, negative = inhibition | Potency |
| --- | --- | --- |
| O=C(O)c1cccc2cccnc12 | inactive | – |
| CCCCn1c(N)c(N(CC)C(=O)c2ccc(N(C)S(=O)(=O)c3ccc(C)cc3)cc2)c(=O)[nH]c1=O | inconclusive: 11.5% | – |

— PubChem BioAssay AID493014 (National Center for Advancing Translational Sciences (NCATS), 2011)
